Measurements taken from paper PMC12193315.
No constants are given. Whether binding was seen depends on the method and setting. Binding seen in cells or lysates may run through a third protein. These calls come from enrichment with a bait or labelling near it, and not all partners need be listed.

Sequences of proteins named here, by UniProt entry; tags and fusion partners are left off. Residues count along the entry.
UniProt P0DTC7, residues 16-121: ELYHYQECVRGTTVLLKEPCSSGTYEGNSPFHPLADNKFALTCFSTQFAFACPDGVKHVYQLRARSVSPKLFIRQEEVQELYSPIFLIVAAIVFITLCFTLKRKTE
UniProt P08238: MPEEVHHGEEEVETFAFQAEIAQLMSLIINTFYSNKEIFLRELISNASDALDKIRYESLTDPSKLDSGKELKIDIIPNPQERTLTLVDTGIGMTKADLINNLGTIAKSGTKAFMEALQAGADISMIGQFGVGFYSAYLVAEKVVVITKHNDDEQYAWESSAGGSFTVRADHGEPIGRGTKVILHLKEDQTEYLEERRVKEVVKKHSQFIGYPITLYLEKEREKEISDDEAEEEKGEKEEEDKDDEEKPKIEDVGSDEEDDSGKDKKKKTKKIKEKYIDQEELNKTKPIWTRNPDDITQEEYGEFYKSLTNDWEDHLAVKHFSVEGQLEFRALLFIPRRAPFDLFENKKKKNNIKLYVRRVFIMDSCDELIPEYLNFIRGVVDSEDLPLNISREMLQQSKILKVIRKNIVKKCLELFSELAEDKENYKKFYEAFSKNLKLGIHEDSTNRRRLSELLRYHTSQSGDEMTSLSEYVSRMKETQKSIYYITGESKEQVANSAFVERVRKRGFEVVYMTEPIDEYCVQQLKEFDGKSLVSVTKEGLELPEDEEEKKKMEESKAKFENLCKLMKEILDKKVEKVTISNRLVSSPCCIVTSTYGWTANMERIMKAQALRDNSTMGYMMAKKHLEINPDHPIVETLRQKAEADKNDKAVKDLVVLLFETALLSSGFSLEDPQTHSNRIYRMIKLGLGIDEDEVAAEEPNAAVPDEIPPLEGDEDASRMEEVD
UniProt P35580: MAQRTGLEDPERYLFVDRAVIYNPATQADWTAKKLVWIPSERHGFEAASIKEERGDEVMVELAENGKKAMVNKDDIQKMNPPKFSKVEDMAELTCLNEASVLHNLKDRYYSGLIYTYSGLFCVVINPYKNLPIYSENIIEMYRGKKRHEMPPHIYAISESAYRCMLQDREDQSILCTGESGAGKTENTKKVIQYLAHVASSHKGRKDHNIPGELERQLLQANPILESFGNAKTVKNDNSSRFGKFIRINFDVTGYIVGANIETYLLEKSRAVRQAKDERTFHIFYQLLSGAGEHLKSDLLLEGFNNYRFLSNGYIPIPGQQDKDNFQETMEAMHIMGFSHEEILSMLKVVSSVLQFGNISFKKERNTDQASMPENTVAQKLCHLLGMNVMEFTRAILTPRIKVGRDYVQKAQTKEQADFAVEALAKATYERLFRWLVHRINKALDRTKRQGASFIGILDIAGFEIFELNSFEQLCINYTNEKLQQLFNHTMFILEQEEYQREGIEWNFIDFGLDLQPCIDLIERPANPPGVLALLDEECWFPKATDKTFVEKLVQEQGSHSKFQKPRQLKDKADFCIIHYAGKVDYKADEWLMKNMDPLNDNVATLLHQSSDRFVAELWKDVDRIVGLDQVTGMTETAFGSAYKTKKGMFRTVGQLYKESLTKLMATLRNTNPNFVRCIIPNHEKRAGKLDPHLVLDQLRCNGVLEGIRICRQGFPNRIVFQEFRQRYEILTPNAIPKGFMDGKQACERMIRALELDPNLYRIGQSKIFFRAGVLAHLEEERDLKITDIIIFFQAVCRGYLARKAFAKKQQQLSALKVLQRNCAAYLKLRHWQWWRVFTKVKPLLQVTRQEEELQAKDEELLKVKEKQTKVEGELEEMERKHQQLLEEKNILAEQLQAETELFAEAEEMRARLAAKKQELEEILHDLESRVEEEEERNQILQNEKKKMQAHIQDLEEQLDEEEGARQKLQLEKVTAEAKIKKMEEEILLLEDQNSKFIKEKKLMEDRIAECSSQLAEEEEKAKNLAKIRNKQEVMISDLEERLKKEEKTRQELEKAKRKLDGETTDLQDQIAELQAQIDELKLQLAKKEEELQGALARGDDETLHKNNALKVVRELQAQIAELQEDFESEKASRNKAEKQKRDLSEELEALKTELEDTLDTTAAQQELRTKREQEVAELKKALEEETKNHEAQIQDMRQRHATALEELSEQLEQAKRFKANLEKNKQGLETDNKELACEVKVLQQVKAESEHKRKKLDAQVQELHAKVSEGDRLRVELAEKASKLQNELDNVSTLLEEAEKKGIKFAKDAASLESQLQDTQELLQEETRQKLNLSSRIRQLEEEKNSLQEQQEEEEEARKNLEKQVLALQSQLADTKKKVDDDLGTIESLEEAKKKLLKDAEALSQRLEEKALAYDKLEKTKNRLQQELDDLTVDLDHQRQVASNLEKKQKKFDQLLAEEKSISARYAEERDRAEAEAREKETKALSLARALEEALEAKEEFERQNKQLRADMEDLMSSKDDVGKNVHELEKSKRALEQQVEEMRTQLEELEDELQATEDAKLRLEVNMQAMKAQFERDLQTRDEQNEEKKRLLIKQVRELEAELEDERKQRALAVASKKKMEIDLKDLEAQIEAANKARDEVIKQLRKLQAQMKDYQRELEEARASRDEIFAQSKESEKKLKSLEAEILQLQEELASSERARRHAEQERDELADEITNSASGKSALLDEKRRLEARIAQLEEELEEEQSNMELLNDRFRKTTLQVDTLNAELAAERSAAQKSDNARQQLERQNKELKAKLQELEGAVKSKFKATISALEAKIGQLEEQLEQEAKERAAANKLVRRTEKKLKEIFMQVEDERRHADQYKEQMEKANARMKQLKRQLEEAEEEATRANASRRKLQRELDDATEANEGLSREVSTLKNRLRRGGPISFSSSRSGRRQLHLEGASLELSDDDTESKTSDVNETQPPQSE
UniProt P60660: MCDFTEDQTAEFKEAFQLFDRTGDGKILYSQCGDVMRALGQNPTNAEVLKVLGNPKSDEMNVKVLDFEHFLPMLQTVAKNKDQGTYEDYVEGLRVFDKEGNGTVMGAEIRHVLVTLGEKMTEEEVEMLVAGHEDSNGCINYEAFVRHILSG
UniProt P14625, residues 22-803: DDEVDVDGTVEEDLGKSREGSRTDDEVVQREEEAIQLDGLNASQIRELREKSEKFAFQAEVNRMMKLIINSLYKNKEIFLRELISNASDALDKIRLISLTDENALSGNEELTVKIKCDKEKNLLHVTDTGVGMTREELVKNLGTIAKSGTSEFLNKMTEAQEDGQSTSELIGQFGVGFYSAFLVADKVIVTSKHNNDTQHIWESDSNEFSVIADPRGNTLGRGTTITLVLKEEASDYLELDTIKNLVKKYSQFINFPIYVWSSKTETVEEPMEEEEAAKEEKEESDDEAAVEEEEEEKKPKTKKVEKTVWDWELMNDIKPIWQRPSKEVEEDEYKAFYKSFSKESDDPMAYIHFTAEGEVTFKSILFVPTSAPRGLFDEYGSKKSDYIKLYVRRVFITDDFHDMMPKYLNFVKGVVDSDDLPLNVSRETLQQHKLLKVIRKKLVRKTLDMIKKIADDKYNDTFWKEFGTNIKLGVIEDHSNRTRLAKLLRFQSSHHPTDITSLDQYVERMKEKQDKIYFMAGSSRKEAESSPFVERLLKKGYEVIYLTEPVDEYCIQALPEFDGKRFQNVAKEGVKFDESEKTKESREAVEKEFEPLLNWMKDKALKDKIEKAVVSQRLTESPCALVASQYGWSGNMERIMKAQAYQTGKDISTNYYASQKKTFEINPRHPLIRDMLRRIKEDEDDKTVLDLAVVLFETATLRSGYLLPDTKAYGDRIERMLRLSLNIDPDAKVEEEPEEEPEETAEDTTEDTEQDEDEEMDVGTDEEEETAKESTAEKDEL
UniProt P11142: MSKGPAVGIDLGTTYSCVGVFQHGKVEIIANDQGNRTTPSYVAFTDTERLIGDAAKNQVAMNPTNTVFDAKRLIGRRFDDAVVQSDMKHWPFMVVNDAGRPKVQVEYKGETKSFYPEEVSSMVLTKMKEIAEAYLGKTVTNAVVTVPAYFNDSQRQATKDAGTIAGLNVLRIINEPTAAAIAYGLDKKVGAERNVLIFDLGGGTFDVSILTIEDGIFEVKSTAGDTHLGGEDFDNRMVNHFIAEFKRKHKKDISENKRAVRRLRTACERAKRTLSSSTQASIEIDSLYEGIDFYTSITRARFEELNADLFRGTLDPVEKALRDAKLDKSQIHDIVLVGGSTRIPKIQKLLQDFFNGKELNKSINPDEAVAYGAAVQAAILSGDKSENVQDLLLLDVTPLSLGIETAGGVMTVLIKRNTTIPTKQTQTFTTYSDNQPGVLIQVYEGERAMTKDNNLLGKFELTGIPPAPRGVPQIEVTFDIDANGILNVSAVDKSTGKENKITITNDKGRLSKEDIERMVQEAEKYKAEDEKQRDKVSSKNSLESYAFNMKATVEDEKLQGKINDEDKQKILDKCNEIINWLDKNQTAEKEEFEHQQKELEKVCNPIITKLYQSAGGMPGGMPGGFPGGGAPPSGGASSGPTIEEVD
UniProt P27824, residues 21-592: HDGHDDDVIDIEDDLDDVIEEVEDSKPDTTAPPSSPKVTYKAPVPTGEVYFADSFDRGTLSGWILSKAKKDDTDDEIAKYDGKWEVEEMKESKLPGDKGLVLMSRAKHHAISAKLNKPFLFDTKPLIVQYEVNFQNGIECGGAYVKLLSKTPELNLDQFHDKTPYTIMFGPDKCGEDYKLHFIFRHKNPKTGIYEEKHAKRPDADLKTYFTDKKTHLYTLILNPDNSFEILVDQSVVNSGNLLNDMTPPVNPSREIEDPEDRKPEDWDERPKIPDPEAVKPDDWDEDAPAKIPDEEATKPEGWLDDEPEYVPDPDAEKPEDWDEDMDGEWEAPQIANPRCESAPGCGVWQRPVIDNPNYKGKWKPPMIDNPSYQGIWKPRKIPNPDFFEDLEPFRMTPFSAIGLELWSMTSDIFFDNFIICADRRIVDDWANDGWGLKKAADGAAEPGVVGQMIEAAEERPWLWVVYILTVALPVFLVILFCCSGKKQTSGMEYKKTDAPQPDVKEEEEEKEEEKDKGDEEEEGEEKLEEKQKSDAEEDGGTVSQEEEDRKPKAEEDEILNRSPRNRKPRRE

The substances below were run against SARS-CoV-2 accessory protein ORF7a, full length, Flag-tagged (pCAGEN-Flag-ORF7a) (SARS-CoV-2) (UniProt P0DTC7) (assay: affinity purification with mass spectrometry).

Substance | binding
HSP90AB1 (from UniProt P08238 1-724) | binds
MYH10 (from UniProt P35580 1-1976) | binds
MYL6 (from UniProt P60660 1-151) | binds
HSP90B1 (from UniProt P14625 22-803) | binds
HSPA8 (from UniProt P11142 1-646) | binds
CANX (from UniProt P27824 21-592) | binds
VCP (from UniProt P55072 1-806) | binds
